The values below come from PMC3272004.

The chains behind the UniProt entries cited, without tags or fusion partners. Where a name states a change or a piece, a line headed by the entry shows the natural chain unless it says otherwise.
UniProt P16371: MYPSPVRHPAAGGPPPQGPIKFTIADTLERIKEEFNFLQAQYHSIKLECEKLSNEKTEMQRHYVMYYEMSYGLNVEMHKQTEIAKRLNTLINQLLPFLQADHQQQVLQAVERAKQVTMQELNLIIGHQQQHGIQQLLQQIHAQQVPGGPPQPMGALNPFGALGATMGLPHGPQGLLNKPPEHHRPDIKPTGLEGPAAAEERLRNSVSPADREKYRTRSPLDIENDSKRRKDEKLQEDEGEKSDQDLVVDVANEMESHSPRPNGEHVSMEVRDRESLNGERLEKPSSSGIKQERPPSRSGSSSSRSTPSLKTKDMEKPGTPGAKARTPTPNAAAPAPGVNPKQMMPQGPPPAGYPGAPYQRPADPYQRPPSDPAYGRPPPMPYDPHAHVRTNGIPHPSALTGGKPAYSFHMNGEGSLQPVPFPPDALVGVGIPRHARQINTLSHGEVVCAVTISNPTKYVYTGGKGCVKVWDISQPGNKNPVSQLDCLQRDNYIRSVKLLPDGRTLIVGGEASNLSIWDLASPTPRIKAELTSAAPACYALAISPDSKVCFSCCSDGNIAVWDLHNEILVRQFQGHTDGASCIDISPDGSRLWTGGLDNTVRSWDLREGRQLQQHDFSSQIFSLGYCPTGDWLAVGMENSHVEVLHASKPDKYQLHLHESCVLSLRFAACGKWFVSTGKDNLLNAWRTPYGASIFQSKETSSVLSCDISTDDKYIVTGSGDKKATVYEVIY

Results are given in words; binding and its absence hold for the method and conditions named. In cells and extracts the contact can be indirect. Binding can be weak; no strength is given.

The test has as its target His-tagged Gro N-terminal region, 40D/89D double point mutant (His-GroN^40D/89D) (Drosophila) (UniProt P16371). The experiment in a line: pull-down; untagged Gro forms cotranslated in vitro with His-GroN in the presence of [35S]-methionine; His-GroN immobilised on Ni-NTA beads overnight at 4°C; 25 mM HEPES pH 7.6, 450 mM NaCl, 10 mM imidazole, 0.1% Tween 20, 1 mM DTT; SDS-PAGE and autoradiography.

As to “Groucho, wild-type full-length (Gro^WT), untagged (from UniProt P16371 1-730)”, the binding entry was “binds”.
